Laboratory results reported in article PMC4765350.
These are yes or no findings as the source states them, for the method shown. Binding calls can cover weak binding; strength is not graded here. Where a sequence is shown, tags or fusion partners need not be part of it.

Target: BtuC2D2 mutant E159Q (E. coli)
Test: SPR; fresh BtuC2D2 E159Q or the same preparation incubated for 7 hours at the ATP-hydrolyzing conditions, immobilised; 0.5 uM apo BtuF injected; both purified

binding: binds
B1: BtuF, substrate binding protein (SBP) of the vitamin B12 transport system, FLAG-tagged (protein, UniProt P37028 23-266)
chain: APRVITLSPANTELAFAAGITPVGVSSYSDYPPQAQKIEQVSTWQGMNLERIVALKPDLVIAWRGGNAERQVDQLASLGIKVMWVDATSIEQIANALRQLAPWSPQPDKAEQAAQSLLDQYAQLKAQYADKPKKRVFLQFGINPPFTSGKESIQNQVLEVCGGENIFKDSRVPWPQVSREQVLARSPQAIVITGGPDQIPKIKQYWGEQLKIPVIPLTSDWFERASPRIILAAQQLCNALSQVD
